Test results taken from PubChem BioAssay AID1745853 (National Center for Advancing Translational Sciences (NCATS), 2022).
The other results are listed elsewhere or left out.

Protein sequences, listed by entry. Tags and fused reporters are not part of them.
UniProt Q14749, whole entry: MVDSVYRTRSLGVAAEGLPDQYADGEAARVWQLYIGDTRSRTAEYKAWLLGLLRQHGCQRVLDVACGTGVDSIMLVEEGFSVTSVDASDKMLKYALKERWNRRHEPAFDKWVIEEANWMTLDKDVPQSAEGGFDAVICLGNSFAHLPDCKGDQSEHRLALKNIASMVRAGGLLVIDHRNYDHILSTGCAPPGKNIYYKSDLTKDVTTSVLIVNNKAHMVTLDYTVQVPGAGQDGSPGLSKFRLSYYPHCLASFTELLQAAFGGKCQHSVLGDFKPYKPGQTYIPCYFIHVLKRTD
UniProt P50135, whole entry: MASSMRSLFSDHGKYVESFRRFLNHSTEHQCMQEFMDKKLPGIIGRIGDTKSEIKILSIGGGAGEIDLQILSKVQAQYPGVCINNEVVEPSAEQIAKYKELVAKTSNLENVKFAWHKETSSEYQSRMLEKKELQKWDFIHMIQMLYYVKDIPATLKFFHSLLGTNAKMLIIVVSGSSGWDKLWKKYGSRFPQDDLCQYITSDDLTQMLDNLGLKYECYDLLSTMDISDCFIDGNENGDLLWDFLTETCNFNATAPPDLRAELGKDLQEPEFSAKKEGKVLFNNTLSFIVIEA
UniProt P40261, whole entry: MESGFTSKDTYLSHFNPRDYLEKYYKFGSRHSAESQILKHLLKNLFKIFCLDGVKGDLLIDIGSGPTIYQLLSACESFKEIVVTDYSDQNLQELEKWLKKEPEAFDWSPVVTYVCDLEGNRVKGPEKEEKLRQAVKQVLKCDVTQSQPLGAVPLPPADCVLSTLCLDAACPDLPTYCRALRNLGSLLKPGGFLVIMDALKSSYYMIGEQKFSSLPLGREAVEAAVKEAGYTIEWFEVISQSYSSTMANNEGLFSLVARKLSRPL
UniProt P11086, whole entry: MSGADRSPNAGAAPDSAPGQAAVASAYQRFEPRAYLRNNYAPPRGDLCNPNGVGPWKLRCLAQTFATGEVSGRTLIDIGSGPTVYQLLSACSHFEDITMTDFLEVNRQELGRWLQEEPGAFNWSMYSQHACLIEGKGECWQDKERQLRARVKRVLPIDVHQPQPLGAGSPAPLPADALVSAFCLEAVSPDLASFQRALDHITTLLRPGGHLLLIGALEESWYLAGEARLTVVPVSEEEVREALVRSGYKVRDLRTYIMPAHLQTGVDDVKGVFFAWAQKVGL

Assays:
Test in all cases: Primary Screen for Target Class Profiling of Small Molecule Inhibitors of Methyltransferases
[1] = molecular target: Glycine N-methyltransferase (Homo sapiens) (UniProt Q14749); conditions: purified enzyme, MTase-Glo SAH luminescence; measured here: GNMT inhibition; at 40 µM; stronger effect = lower value
Source text: (§1) PI: Matthew D. Hall Ph.D. and Quinlin M. Hanson Ph.D.
(§2) National Center for Advancing Translational Sciences (NCATS)
(§3) National Institute of Health (NIH), Rockville, MD
(§4) Target class profiling (TCP) is a chemical biology approach amenable to investigating understudied biological targets. TCP is achieved by developing a generalizable assay platform and applying it to screen a curated set of compound libraries against representative members of a target class. Small molecule methyltransferases (SMMTase) are a subclass of methyltransferase that act on metabolites to modulate signaling pathways, metabolize xenobiotics, or balance the available methyl pool. We screened four curated libraries totaling 27,574 unique compounds against the SMMTases nicotinamide N-methyltransferase (NNMT), phenylethanolamine N-methyltransferase (PNMT), histamine N-methyltransferase (HNMT), glycine N-methyltransferase (GNMT), catechol O-methyltransferase (COMT), and guanidinoacetate N-methyltransferase (GAMT). The data generated by this TCP can be leveraged for informed tool molecule development. For example, in the associated publication we identified a chemotype of HNMT-selective inhibitors. Additionally, we identified a putative SMMTase-selective inhibitor with potential as a tool molecule for studying broader methyltransferase biology.
(§5) High-through put screening assays were developed at the National Center for Advancing Translational Science (NCATS) for the enzymes NNMT, PNMT, HNMT, GNMT, COMT, and GAMT. Enzymatic activity was measured as a function of SAM cofactor conversion using the MTase Glo kit (Promega) for all enzymes. All assays were performed in 1536-well format with substrates and SAM concentrations at KM values. Enzyme concentration and assay timing were optimized for 10-20% SAM conversion. Initial screening of 27,574 compounds was done as single-point assays using the highest compound concentration (40 uM). […] These compounds were replated in 11-point dose response and assayed against NNMT, PNMT, HNMT, GNMT, COMT, GAMT, and a counter-assay. The IC50 and efficacy (maximal response) values were determined for each dose-response curve. These values are also accounted for in the area under the curve (AUC) values.
(§6) PROTOCOL TABLE (as described by Inglese J, Shamu CE and Guy RK. 2007)
(§7) SEQUENCE No. (e.g., 1, 2, 3, etc.); […] (e.g., Cells, Incubation, Reagent, etc.); VALUE; DESCRIPTION.
(§8) 1; Reagent; 2 uL; SMMTase Enzyme (2x) in reaction buffer, columns 1- 48.
(§9) 2; Reagent; 1 uL; SAM (4x) in reaction buffer, columns 1-48.
(§10) 3; Controls; 23 nL; DMSO in column 4; sinefungin in DMSO (0 uM - 40 uM) in 7-point 1:2 dilution series (n = 2) in column 2.
(§11) 4; Compounds; 23 nL; Columns 5-48.
(§12) 5; Reagent; 1 uL; Substrate (4x) in reaction buffer, columns 2-48.
(§13) 6; Time; 20-30 min; Incubation.
(§14) 7; Reagent; 1 uL; MTase-Glo reagent (5X), columns 1-48.
(§15) 8; Time; 30 min; Incubation.
(§16) 9; Reagent; 5 uL; MTase-Glo Detection reagent, columns 1-48.
(§17) 10; Time; 30 min; Incubation, luminescence evolution.
(§18) 11; Detection; Luminescence; ViewLux uHTS Microplate Imager (PerkinElmer).
(§19) NOTES (numbers refer to Sequence numbers above)
(§20) 1, 2, 5. White Medium Binding Greiner 1536-well plates (Cat #789175-F, Greiner Bio-One, Monroe, NC); Reaction buffer: 50 mM Tris, pH 8.0, 3 mM MgCl2, 1 mM EDTA, 50 mM NaCl, 1 mM DTT, and 0.1 mg/mL BSA. Evaporation was prevented by covering assay plates with metal lids containing holes to allow gas diffusion.
(§21) 1. Six SMMTase were profiled: HNMT, GNMT, PNMT, COMT, NNMT, GAMT
5. […]

[2] = molecular target: Guanidinoacetate N-methyltransferase (Homo sapiens) (UniProt Q14353); conditions: purified enzyme, MTase-Glo SAH luminescence; measured here: GAMT inhibition; at 40 µM; stronger effect = lower value
Source text: as §1, §2, §3, §4, §5, §6, §7, §8, §9, §10, §11, §12, §13, §14, §15, §16, §17, §18, §19, §20, §21
5. […]

[3] = molecular target: Histamine N-methyltransferase (Homo sapiens) (UniProt P50135); conditions: purified enzyme, MTase-Glo SAH luminescence; measured here: HNMT inhibition; at 40 µM; stronger effect = lower value
Source text: as §1, §2, §3, §4, §5, §6, §7, §8, §9, §10, §11, §12, §13, §14, §15, §16, §17, §18, §19, §20, §21
5. […]

[4] = molecular target: Nicotinamide N-methyltransferase (Homo sapiens) (UniProt P40261); conditions: purified enzyme, MTase-Glo SAH luminescence; measured here: NNMT inhibition; at 40 µM; stronger effect = lower value
Source text: as §1, §2, §3, §4, §5, §6, §7, §8, §9, §10, §11, §12, §13, §14, §15, §16, §17, §18, §19, §20, §21
5. […]

[5] = molecular target: Phenylethanolamine N-methyltransferase (Homo sapiens) (UniProt P11086); conditions: purified enzyme, MTase-Glo SAH luminescence; measured here: PNMT inhibition; at 40 µM; stronger effect = lower value
Source text: as §1, §2, §3, §4, §5, §6, §7, §8, §9, §10, §11, §12, §13, §14, §15, §16, §17, §18, §19, §20, §21
5. […]
On the % scale 0 is the no-effect control and ±100 the full control effect.

CC(=O)N1CCc2ccc(N(C(=O)/C=C/c3cccc(C#N)c3)C3CCN(CCC4CCCC4)CC3)cc21
activity change, negative = inhibition [1]: 5.33% | activity change, negative = inhibition [2]: 5.78% | activity change, negative = inhibition [3]: -2.67% | activity change, negative = inhibition [4]: 2.38% | activity change, negative = inhibition [5]: 4.15%
